# Laboratory results as given in publication PMC12431657, “Discovery and mechanistic insights of dibenzoylmethane as a broad spectrum inhibitor of coronavirus” (PLOS Pathogens, 2025).
# Where a name gives a salt, the structure may show the parent alone. Read-outs that look alike come from different tables or passages of the source. Screen size: about 3,300 compounds; about 95 (3%) showed an effect of 50% or more. This is one part of the list. Numbered stars: 1 amine (or outer) side, 2 acyl side, 3 side chain; on linkers, the order of the positions; unused ones are H or OH. Square brackets hold non-standard residues; d marks the D form. Peptide text beside a SMILES is read from it. X1 = CC[C@@H](C)[C@@H](O[*:1])C(=O)[*:2]; NMeVal(β-OH) = CN[C@H](C(=O)O)C(C)(C)O; NMeF = CN[C@@H](Cc1ccccc1)C(=O)O; aIle = CC[C@@H](C)[C@H](N)C(=O)O; NMeV = CN[C@H](C(=O)O)C(C)C
# Tested on: HCoV-229E
# Set-up: species or system Huh-7; HTS, protection from HCoV-229E induced cell death, luminescent cell viability (CellCounting-Lite 2.0), inhibition rate
smiles,measurement,setting,value
CC[C@@]1(O)C(=O)OCc2c1cc1n(c2=O)Cc2cc3c(OC)cccc3nc2-1 [9-Methoxycamptothecin],229E Inhibition rate,"24 h, 10 µM; inhibitor",4.5%
CO[C@H]1CC[C@@H](O[C@H]2C[C@H]([C@]3(C)CC[C@]4(C[C@H](O)[C@@H](C)[C@@H]([C@@H](C)/C=C(\C)C(=O)[C@H](C)C[C@H](C)C(=O)O)O4)O3)O[C@]3(O[C@@H]([C@H]4O[C@@](O)(CO)[C@H](C)C[C@@H]4C)C[C@@H]3C)[C@@H]2C)O[C@@H]1C [Nanchangmycin],229E Inhibition rate,"24 h, 10 µM, inhibitor",0.6%
COC(=O)[C@]1(C)CC[C@]2(C)CC[C@]3(C)C4=CC=C5C(=CC(=O)C(O)=C5C)[C@]4(C)CC[C@@]3(C)[C@@H]2C1 [Pristimerin],229E Inhibition rate,"24 h, 10 µM; inhibitor",0.7%
CCC1(O)C(=O)OCc2c1cc1n(c2=O)Cc2cc3cc(O)ccc3nc2-1 (racemic) [(±)-10-Hydroxycamptothecin],229E Inhibition rate,"24 h, 10 µM; inhibitor",8.6
O=C(O)[C@H]1O[C@@H](Oc2cc3oc(-c4ccc(O)cc4)cc(=O)c3c(O)c2O)[C@H](O)[C@@H](O)[C@@H]1O [Scutellarin],229E Inhibition rate,"24 h, 10 µM; inhibitor",20.3
COc1cc(CNC(=O)CCCCCC(C)C)ccc1O [Nordihydrocapsaicin],229E Inhibition rate,"24 h, 10 µM; inhibitor",28.7%
C[C@@H]1CC[C@@]2(NC1)O[C@H]1C[C@H]3[C@@H]4CC=C5C[C@@H](O[C@@H]6O[C@H](CO)[C@@H](O[C@@H]7O[C@@H](C)[C@H](O)[C@@H](O)[C@H]7O)[C@H](O)[C@H]6O)CC[C@]5(C)[C@H]4CC[C@]3(C)[C@H]1[C@@H]2C [Khasianine],229E Inhibition rate,"24 h, 10 µM; inhibitor",26.5%
COC1=CC(=O)O[C@@H](CCc2ccccc2)C1 [Dihydrokavain],229E Inhibition rate,"24 h, 10 µM; inhibitor",11.2%
CC1(C)OC1COc1c2occc2cc2ccc(=O)oc12 (stereo not drawn) [Oxyimperatorin],229E Inhibition rate,"24 h, 10 µM; inhibitor",9.8%
COc1cc(CCN)ccc1O [3-Methoxytyramine],229E Inhibition rate,"24 h, 10 µM, inhibitor",7.5%
CC[C@@H](C)[C@@H]1NC(=O)[C@@H]2CCCN2C(=O)[C@H](Cc2ccccc2)N(C)C(=O)[C@H](Cc2ccccc2)NC(=O)[C@H](C(C)C)N(C)C(=O)[C@@H]([C@H](C)CC)OC(=O)[C@H](C(C)(C)O)N(C)C(=O)[C@H](CC(C)C)NC(=O)[C@H](C(C)C)N(C)C1=O [Aureobasidin A] (cyclo(F[NMeF]P[aIle][NMeV]L[NMeVal(β-OH)][X1][NMeV])),229E Inhibition rate,"24 h, 10 µM; inhibitor",22.7%
Nc1ncnc2c1ncn2[C@@H]1O[C@H](COP(N)(=O)O)[C@@H](O)[C@H]1O [Adenosine 5′-monophosphoramidate (sodium)],229E Inhibition rate,"24 h, 10 µM; inhibitor",32.5%
C/C=C1/C[C@@H](C)[C@@](C)(O)C(=O)OCC2=CCN3CC[C@@H](OC1=O)[C@@H]23 [Senecionine],229E Inhibition rate,"24 h, 10 µM; inhibitor",6.8%
C[C@]12CC[C@H](OS(=O)(=O)O)CC1=CC[C@@H]1[C@@H]2CC[C@]2(C)C(=O)CC[C@@H]12 [Dehydroepiandrosterone sulfate (sodium salt)],229E Inhibition rate,"24 h, 10 µM; inhibitor",0%
NC(=O)NCCCC[C@H](N)C(=O)O [L-Homocitrulline],229E Inhibition rate,"24 h, 10 µM; inhibitor",20.7
C=C1C(=O)O[C@@H]2[C@H]3C(C)=CC[C@@]34O[C@@]4(C)CC[C@@H]12 [Arglabin],229E Inhibition rate,"24 h, 10 µM; inhibitor",30.7
Cc1cccc(C=O)c1 [m-Tolualdehyde],229E Inhibition rate,"24 h, 10 µM; inhibitor",7.5%
C[C@@H]1CC[C@@]2(OC1)O[C@H]1C[C@H]3[C@@H]4CC=C5C[C@@H](O[C@@H]6O[C@H](CO)[C@@H](O[C@@H]7O[C@@H](C)[C@H](O[C@@H]8O[C@@H](C)[C@H](O)[C@@H](O)[C@H]8O)[C@@H](O)[C@H]7O)[C@H](O)[C@H]6O[C@@H]6O[C@@H](C)[C@H](O)[C@@H](O)[C@H]6O)CC[C@]5(C)[C@H]4CC[C@]3(C)[C@H]1[C@@H]2C [Formosanin C],229E Inhibition rate,"24 h, 10 µM; inhibitor",12.7%
C[C@]12CCC(=O)C=C1CC[C@@H]1[C@@H]2[C@@H](O)C[C@]2(C)C(=O)CC[C@@H]12 [11-Beta-hydroxyandrostenedione],229E Inhibition rate,"24 h, 10 µM; inhibitor",25.4%
CC(=O)OC[C@]12[C@H](OC(C)=O)[C@H](OC(C)=O)[C@@H]3[C@@H](OC(C)=O)[C@@]14O[C@@]3(C)COC(=O)c1cccnc1CCC(C)C(=O)O[C@@H]([C@H](OC(=O)c1ccccc1)[C@@H]2OC(C)=O)[C@]4(C)O (stereo partly drawn) [Wilforine],229E Inhibition rate,"24 h, 10 µM; inhibitor",24.1%
COC1=CC(=O)O[C@@H](CCc2ccc3c(c2)OCO3)C1 [Dihydromethysticin],229E Inhibition rate,"24 h, 10 µM; inhibitor",0%
CO[C@@H]1C[C@@H](C[C@H]2CC[C@H](C)[C@H]([C@@H](C)C(=O)O)O2)O[C@]2(O[C@](C)([C@H]3CC[C@@](C)([C@@H]4O[C@@H]([C@H]5O[C@@](O)(CO)[C@H](C)C[C@@H]5C)C[C@@H]4C)O3)C[C@H]2C)[C@@H]1C [Nigericin (sodium salt)],229E Inhibition rate,"24 h, 10 µM; inhibitor",0%
O=c1cc(O)c2ccccc2o1 [4-Hydroxycoumarin],229E Inhibition rate,"24 h, 10 µM; inhibitor",6.9%
NC(=O)c1cn([C@@H]2O[C@H](CO)[C@@H](O)[C@H]2O)c2ncnc(N)c12 [Sangivamycin],229E Inhibition rate,"24 h, 10 µM; inhibitor",8.8%
C[C@]12CC[C@H]3[C@@H](CC[C@@H]4C[C@@H](O)CC[C@@]43CO)[C@@]1(O)CC[C@@H]2c1ccc(=O)oc1 [19-Hydroxybufalin],229E Inhibition rate,"24 h, 10 µM; inhibitor",43.5%
C=CCc1cc(OC)c2c(c1)OCO2 [Myristicin],229E Inhibition rate,"24 h, 10 µM; inhibitor",7.2%
CC[C@@]1(O)C(=O)OCc2c1cc1n(c2=O)Cc2cc3c(N)cccc3nc2-1 [9-amino-CPT],229E Inhibition rate,"24 h post infection, 1 h compound pre-incubation; 10 µM; inhibitor",13.2%
C=C1CC[C@H]2[C@@H](/C=C(\C)C(=O)[C@@]3(O)C[C@H](C)[C@H](O)[C@@H]3[C@@H]1O)C2(C)C [Lathyrol],229E Inhibition rate,"24 h, 10 µM; inhibitor",9.6%
COC[C@]12CN(C)C3[C@@H]4[C@H](OC)[C@H]1[C@@]3([C@@H](OC)C[C@H]2O)[C@]1(O)C[C@@]2(O)[C@H](OC(=O)c3ccccc3)[C@@H]1[C@]4(OC(C)=O)[C@@H](O)[C@@H]2OC [Beiwutine],229E Inhibition rate,"24 h, 10 µM; inhibitor",5.9%
C[C@]12CC[C@H](O)C[C@@]1(O)CC[C@@H]1[C@@H]2CC[C@]2(C)[C@@H](c3ccc(=O)oc3)[C@@H](O)[C@H]3O[C@]132 [Desacetylcinobufotalin],229E Inhibition rate,"24 h, 10 µM; inhibitor",0%

# Reformatted bar-delimited: part of the list above
smiles | measurement | setting | value
COc1cc(CCN)ccc1O [3-Methoxytyramine] | 229E Inhibition rate | 24 h, 10 µM, inhibitor | 7.5%
CC[C@@H](C)[C@@H]1NC(=O)[C@@H]2CCCN2C(=O)[C@H](Cc2ccccc2)N(C)C(=O)[C@H](Cc2ccccc2)NC(=O)[C@H](C(C)C)N(C)C(=O)[C@@H]([C@H](C)CC)OC(=O)[C@H](C(C)(C)O)N(C)C(=O)[C@H](CC(C)C)NC(=O)[C@H](C(C)C)N(C)C1=O [Aureobasidin A] (cyclo(F[NMeF]P[aIle][NMeV]L[NMeVal(β-OH)][X1][NMeV])) | 229E Inhibition rate | 24 h, 10 µM; inhibitor | 22.7%
Nc1ncnc2c1ncn2[C@@H]1O[C@H](COP(N)(=O)O)[C@@H](O)[C@H]1O [Adenosine 5′-monophosphoramidate (sodium)] | 229E Inhibition rate | 24 h, 10 µM; inhibitor | 32.5%
C/C=C1/C[C@@H](C)[C@@](C)(O)C(=O)OCC2=CCN3CC[C@@H](OC1=O)[C@@H]23 [Senecionine] | 229E Inhibition rate | 24 h, 10 µM; inhibitor | 6.8%
C[C@]12CC[C@H](OS(=O)(=O)O)CC1=CC[C@@H]1[C@@H]2CC[C@]2(C)C(=O)CC[C@@H]12 [Dehydroepiandrosterone sulfate (sodium salt)] | 229E Inhibition rate | 24 h, 10 µM; inhibitor | 0%
NC(=O)NCCCC[C@H](N)C(=O)O [L-Homocitrulline] | 229E Inhibition rate | 24 h, 10 µM; inhibitor | 20.7
C=C1C(=O)O[C@@H]2[C@H]3C(C)=CC[C@@]34O[C@@]4(C)CC[C@@H]12 [Arglabin] | 229E Inhibition rate | 24 h, 10 µM; inhibitor | 30.7
Cc1cccc(C=O)c1 [m-Tolualdehyde] | 229E Inhibition rate | 24 h, 10 µM; inhibitor | 7.5%
